Experimental data: PubChem BioAssay AID652272 (Drosophila RNAi Screening Center, 2013)

- Purpose: 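Genes whose knock-down decreases or increases Hedgehog reporter output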 (primary screen)
- Cells: Drosophila clone 8 (Cl8) cells
- Reagent: long dsRNA against Drosophila genes
- Detection: 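Firefly light from a Hedgehog-responsive ptc promoter reporter and Renilla reference light, both read on a plate reader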
- Reading the numbers: firefly Hh reporter signal: higher = more ptc reporter light; Renilla reference signal: higher = more Renilla control light
- Call rule: 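Hit when the z-score averaged over two replicates is under -2 or over +3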
- Meaning of the calls: active = hit: reporter lowered or raised; inactive = not a hit
The deposit covers about 21,000 reagents; this is an unselected part of those that have a named target and a result. Over the whole deposit, 503 (2.4%) are marked active. 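Raw plate light values, not normalised; calls rest on replicate z-scores that were not deposited; hits include reporter decreases as well as increases.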 Reagent sequences are not shown. Not given: the amount of reagent, the time to read-out.

The opening 2 entries as a preview:
gene,dsRNA,"firefly Hh reporter signal, replicate 1","firefly Hh reporter signal, replicate 2","Renilla reference signal, replicate 1","Renilla reference signal, replicate 2",outcome
Atg16 (GeneID 326115),DRSC15052,90352,96626,1162,2928,inactive
Atg16 (GeneID 326115),DRSC15300,69203,1.04e5,2060,6448,inactive

Main list, from the start:
gene,dsRNA,"firefly Hh reporter signal, replicate 1","firefly Hh reporter signal, replicate 2","Renilla reference signal, replicate 1","Renilla reference signal, replicate 2",outcome
Atg16 (GeneID 326115),DRSC15052,90352,96626,1162,2928,inactive
Atg16 (GeneID 326115),DRSC15300,69203,1.04e5,2060,6448,inactive
Atg16 (GeneID 326115),DRSC15375,84169,1.48e5,2496,6477,inactive
Fpgs2 (GeneID 326159),DRSC00600,1.44e5,48100,3411,4641,inactive
CG15653 (GeneID 37388),DRSC04244,1.30e5,72017,3136,5352,inactive
CG8349 (GeneID 34124),DRSC03083,87687,55701,2528,5421,inactive
Gld2 (GeneID 42602),DRSC15863,1.75e5,1.68e5,11545,3603,inactive
ldbr (GeneID 38900),DRSC10933,1.02e5,58866,4555,2442,inactive
Kap-alpha3 (GeneID 41158),DRSC16976,98340,80784,3705,2224,inactive
Or22a (GeneID 33335),DRSC00764,1.48e5,1.30e5,3209,2957,inactive
CG7409 (GeneID 38870),DRSC10842,49509,66444,5227,4346,inactive
Ipk2 (GeneID 33236),DRSC00357,1.10e5,90316,2317,2148,inactive
rumi (GeneID 326122),DRSC15177,95283,1.05e5,4201,3843,inactive
CG43104 (retired record) (GeneID 12798318),DRSC05624,1.17e5,2.41e5,3392,9532,inactive
Lamtor4 (GeneID 38454),DRSC08436,75114,59063,1829,3580,inactive
beta4GalNAcTB (GeneID 43425),DRSC14869,1.45e5,1.17e5,5171,2763,inactive
CG9485 (GeneID 37435),DRSC04557,1.62e5,69275,6153,2960,inactive
mRpL3 (GeneID 32523),DRSC20100,79036,2.32e5,3098,8705,inactive
CG32687 (GeneID 31980),DRSC18210,81322,1.48e5,2748,7632,inactive
CG32687 (GeneID 31980),DRSC18237,66104,1.78e5,2258,6992,inactive
Dhx15 (GeneID 35654),DRSC06036,1.29e5,61845,4808,2345,inactive
yellow-b (GeneID 35005),DRSC03639,66597,46205,2679,2320,inactive
CG3916 (GeneID 41484),DRSC15520,79703,1.41e5,2041,3978,inactive
CG42324 (GeneID 38430),DRSC08431,57066,33771,2042,2228,inactive
CG42324 (GeneID 38430),DRSC08432,85447,50161,3194,3792,inactive
VhaAC45 (GeneID 35944),DRSC07058,62859,61805,2502,1900,inactive
Sec61gamma (GeneID 32968),DRSC19570,72440,1.92e5,2656,10864,inactive
CG3610 (GeneID 41795),DRSC15502,60048,1.01e5,1882,2961,inactive
Tim17a1 (GeneID 41500),DRSC14184,1.22e5,2.00e5,4012,5591,inactive
Ost48 (GeneID 31849),DRSC18693,94688,80656,2341,1869,inactive
mAChR-C (GeneID 31626),DRSC17890,75127,3.56e5,2619,11786,inactive
how (GeneID 42596),DRSC16966,8.00e5,1.73e5,48097,12829,inactive
ClpP (GeneID 34402),DRSC02806,75769,45429,2516,1814,inactive
CG10589 (GeneID 40313),DRSC11629,1.01e5,1.18e5,4073,3664,inactive
CG14915 (GeneID 34536),DRSC02399,80083,70598,2516,7072,inactive
Ir8a (GeneID 31867),DRSC17817,76264,1.21e5,2260,4374,inactive
Ir8a (GeneID 31867),DRSC17869,76304,1.67e5,2150,6189,inactive
CG42238 (GeneID 7354398),DRSC03180,52344,65955,2309,2628,inactive
CG33230 (GeneID 2768998),DRSC08602,99872,68183,4720,2791,inactive
CG2233 (GeneID 31721),DRSC18217,90624,78628,2224,1865,inactive
fra (GeneID 36377),DRSC07621,65734,41000,1664,3289,inactive
CG5687 (GeneID 38255),DRSC08568,1.01e5,71666,5073,2928,inactive
TwdlJ (GeneID 43206),DRSC15812,1.07e5,1.42e5,2545,3019,inactive
CG18304 (GeneID 33969),DRSC02664,1.35e5,57660,3145,6358,inactive
CG7378 (GeneID 32888),DRSC20041,56066,1.51e5,1474,6593,inactive
CG3014 (GeneID 40922),DRSC15458,71403,1.11e5,2907,3223,inactive
nkd (GeneID 44843),DRSC11376,1.12e5,1.12e5,3110,3367,inactive
CG15322 (GeneID 33012),DRSC20680,63741,1.30e5,2228,4727,inactive
CG9522 (GeneID 32413),DRSC20197,76796,1.49e5,2182,5611,inactive
mRpL14 (GeneID 31222),DRSC18597,51408,2.10e5,1223,7648,inactive
CG14341 (GeneID 33301),DRSC00371,1.82e5,1.14e5,4072,3141,inactive
borr (GeneID 34245),DRSC02749,45169,29721,2566,1696,inactive
CG32750 (GeneID 326238),DRSC18848,71574,1.65e5,2484,6023,inactive
CG15097 (GeneID 37172),DRSC06526,1.08e5,86762,5196,3568,inactive
dgt2 (GeneID 34610),DRSC02548,74146,50592,1604,4416,inactive
CG6204 (GeneID 42877),DRSC15991,1.16e5,1.09e5,4924,3971,inactive
CG8043 (GeneID 41030),DRSC16368,66130,94314,1460,2710,inactive
